These results are taken from the supplement of paper PMC6411743.

Amino acid sequences for entries named in this document (tags omitted). A change or cut given only in a name is not applied to a line headed by its entry.
UniProt Q8NEB9, whole entry: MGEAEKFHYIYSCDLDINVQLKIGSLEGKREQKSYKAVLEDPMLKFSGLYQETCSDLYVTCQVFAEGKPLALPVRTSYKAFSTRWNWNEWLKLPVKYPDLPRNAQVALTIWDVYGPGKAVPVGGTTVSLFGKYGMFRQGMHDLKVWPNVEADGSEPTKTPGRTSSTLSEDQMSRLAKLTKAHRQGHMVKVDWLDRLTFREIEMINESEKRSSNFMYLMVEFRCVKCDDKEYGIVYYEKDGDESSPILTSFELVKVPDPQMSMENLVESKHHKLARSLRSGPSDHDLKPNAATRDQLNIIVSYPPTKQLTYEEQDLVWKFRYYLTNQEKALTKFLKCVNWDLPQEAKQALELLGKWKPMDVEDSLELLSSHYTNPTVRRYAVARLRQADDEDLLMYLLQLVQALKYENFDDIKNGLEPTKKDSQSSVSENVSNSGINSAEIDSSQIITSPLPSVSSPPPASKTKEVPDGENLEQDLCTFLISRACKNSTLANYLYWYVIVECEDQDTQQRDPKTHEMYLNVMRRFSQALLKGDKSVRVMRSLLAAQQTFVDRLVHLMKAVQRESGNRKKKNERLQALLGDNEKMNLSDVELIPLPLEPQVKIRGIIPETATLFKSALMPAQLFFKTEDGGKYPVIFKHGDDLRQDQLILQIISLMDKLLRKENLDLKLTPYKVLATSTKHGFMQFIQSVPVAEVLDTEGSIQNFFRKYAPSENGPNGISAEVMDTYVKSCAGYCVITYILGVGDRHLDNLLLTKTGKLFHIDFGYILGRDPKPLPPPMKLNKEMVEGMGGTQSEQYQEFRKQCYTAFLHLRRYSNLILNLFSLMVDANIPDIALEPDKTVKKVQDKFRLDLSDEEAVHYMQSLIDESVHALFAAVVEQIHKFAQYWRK
UniProt Q8N4V1: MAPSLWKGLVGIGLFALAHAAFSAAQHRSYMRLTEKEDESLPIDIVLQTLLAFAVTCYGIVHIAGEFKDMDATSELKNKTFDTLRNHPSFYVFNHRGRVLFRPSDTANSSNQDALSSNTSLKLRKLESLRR
UniProt Q8NFC6: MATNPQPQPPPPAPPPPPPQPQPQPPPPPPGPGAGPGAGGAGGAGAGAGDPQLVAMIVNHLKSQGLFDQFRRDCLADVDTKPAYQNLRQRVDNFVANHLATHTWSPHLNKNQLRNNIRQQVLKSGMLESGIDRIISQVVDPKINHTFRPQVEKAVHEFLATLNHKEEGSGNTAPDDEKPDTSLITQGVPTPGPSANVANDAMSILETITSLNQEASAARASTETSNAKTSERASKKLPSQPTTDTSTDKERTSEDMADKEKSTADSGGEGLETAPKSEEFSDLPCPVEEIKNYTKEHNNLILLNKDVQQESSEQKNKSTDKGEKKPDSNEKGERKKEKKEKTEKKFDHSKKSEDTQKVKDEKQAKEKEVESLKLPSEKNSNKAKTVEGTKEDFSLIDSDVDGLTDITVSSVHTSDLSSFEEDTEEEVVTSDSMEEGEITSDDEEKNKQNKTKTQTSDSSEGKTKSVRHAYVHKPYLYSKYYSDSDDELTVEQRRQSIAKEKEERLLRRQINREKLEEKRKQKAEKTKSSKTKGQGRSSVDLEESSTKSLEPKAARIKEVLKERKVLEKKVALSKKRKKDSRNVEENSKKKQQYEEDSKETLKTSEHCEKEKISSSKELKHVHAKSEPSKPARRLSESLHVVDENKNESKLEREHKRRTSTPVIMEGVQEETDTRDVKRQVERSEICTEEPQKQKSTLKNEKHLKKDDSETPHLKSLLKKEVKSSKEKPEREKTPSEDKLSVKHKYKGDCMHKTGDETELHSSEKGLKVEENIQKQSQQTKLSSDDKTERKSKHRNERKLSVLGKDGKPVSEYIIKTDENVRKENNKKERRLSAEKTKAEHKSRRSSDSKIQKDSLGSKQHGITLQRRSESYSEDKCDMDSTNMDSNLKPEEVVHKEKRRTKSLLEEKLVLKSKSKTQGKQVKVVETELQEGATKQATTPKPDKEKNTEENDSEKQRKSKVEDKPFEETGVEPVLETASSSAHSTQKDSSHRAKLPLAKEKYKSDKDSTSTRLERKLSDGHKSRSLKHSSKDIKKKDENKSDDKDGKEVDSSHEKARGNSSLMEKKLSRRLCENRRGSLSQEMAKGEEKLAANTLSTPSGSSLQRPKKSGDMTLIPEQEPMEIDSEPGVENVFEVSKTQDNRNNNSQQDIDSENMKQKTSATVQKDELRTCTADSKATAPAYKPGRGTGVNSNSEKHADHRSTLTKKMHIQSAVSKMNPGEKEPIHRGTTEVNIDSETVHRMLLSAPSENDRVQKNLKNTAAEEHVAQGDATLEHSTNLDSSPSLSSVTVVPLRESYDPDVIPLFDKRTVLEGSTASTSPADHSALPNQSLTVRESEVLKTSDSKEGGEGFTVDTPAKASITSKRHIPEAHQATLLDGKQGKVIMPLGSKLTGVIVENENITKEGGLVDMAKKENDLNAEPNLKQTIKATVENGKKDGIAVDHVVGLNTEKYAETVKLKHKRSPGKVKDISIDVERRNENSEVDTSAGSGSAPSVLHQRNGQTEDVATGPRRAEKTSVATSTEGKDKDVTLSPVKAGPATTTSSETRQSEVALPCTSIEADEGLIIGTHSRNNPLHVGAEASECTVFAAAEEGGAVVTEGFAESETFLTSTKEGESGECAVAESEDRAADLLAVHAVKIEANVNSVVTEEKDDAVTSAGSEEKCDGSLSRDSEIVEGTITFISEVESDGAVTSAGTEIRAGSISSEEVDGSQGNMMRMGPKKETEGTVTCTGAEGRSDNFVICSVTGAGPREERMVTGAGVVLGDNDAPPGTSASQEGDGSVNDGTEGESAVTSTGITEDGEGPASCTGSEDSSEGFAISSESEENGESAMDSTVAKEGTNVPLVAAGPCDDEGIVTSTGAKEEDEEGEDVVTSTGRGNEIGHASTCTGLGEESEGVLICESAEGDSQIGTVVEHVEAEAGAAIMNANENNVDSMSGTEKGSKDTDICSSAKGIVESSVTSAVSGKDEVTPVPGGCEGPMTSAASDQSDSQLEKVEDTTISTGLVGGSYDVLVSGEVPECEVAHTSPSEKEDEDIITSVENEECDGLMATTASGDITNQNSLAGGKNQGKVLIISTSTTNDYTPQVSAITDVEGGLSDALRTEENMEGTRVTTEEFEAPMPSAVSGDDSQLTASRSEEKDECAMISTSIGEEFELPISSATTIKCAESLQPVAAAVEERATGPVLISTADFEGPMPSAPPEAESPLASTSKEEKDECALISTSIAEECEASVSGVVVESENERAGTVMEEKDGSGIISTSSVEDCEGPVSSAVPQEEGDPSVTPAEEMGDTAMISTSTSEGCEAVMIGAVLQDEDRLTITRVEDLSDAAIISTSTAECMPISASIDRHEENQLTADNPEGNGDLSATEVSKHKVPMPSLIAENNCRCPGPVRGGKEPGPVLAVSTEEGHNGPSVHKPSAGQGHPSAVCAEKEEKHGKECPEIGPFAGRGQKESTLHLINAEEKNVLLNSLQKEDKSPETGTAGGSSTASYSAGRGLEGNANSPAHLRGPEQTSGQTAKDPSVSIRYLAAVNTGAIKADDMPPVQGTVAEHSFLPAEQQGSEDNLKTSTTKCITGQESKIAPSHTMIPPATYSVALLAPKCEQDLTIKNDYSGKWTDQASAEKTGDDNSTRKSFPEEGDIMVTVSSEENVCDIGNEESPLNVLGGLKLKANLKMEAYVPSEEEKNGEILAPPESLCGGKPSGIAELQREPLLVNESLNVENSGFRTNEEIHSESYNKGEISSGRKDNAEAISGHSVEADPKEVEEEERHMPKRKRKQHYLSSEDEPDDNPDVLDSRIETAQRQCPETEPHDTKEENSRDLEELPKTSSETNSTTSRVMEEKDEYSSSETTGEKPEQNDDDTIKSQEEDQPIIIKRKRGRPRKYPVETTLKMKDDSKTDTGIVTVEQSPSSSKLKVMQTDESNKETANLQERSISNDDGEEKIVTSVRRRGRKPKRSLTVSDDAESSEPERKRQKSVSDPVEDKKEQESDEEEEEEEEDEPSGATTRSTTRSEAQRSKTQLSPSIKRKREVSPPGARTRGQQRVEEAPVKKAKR
UniProt Q8ND82: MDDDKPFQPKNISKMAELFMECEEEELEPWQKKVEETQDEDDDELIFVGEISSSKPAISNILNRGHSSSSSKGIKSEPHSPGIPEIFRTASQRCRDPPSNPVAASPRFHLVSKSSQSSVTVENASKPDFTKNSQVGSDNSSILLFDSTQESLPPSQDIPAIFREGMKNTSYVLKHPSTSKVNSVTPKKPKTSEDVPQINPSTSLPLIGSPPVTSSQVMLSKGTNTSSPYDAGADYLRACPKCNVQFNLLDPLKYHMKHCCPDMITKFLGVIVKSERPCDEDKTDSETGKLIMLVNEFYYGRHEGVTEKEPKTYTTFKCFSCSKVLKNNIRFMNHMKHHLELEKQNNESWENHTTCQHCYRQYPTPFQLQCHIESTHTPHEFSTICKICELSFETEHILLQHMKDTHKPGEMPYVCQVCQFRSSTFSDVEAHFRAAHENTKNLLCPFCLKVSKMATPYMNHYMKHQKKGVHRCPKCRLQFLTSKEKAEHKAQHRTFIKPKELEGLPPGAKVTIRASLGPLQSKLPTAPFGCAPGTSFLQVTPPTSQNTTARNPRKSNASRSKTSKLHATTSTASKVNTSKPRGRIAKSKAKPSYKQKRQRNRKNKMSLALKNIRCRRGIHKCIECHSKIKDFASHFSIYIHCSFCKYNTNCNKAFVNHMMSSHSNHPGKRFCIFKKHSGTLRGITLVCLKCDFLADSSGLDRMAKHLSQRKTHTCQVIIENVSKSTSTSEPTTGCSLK
UniProt Q8N9V3: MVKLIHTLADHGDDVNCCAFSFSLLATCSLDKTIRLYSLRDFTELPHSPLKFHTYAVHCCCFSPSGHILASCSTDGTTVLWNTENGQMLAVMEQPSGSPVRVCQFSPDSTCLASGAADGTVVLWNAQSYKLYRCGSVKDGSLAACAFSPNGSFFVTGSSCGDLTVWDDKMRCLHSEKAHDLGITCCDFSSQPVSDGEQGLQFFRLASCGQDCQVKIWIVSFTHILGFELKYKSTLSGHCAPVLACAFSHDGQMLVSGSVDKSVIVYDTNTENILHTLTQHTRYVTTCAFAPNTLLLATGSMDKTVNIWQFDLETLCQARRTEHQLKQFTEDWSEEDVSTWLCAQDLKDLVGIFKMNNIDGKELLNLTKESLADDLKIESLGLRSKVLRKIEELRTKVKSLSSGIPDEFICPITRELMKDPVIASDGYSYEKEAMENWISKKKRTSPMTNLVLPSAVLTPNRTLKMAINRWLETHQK
UniProt Q8N668, whole entry: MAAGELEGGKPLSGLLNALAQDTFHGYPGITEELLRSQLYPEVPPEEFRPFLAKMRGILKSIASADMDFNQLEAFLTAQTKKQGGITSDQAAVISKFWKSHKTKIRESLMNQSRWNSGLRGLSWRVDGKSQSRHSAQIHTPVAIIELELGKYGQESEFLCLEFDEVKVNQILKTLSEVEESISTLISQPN
UniProt Q8NF37: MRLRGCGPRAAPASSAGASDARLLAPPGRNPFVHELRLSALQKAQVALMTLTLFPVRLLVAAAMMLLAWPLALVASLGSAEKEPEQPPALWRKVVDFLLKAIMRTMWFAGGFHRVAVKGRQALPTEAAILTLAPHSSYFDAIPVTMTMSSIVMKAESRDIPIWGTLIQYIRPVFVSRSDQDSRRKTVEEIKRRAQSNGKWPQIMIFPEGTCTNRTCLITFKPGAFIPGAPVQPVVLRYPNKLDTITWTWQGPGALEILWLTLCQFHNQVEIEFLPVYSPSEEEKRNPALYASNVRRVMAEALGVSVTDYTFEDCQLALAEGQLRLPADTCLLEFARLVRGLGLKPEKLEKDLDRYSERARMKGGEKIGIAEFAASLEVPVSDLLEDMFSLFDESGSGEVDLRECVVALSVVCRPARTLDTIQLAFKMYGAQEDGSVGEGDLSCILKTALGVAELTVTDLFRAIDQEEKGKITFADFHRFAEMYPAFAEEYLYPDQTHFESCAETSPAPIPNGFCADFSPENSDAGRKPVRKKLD
UniProt Q8NFG4: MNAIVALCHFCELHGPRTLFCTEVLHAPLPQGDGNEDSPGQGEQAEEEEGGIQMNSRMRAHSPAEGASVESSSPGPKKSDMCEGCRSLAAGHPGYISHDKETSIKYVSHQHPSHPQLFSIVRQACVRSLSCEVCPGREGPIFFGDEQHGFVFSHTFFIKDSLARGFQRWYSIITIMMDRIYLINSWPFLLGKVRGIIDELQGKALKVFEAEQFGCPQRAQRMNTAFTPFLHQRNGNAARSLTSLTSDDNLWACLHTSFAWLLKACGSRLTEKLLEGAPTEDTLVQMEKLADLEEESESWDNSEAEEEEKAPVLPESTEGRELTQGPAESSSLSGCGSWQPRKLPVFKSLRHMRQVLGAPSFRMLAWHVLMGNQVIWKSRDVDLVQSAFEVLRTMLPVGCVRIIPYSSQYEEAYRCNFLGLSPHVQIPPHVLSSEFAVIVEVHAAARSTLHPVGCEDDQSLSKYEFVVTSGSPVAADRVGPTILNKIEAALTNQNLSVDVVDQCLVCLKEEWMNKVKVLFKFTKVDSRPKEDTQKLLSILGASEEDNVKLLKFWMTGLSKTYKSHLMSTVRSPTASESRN

Compound in this assay: Nc1ncnc2c1ncn2[C@@H]1O[C@H](COP(=O)(O)OP(=O)(O)OP(=O)(O)O)[C@@H](O)[C@H]1O [adenosine triphosphate]
Kind of assay: NP40-soluble protein abundance relative to vehicle (solubility fold change) (ratio); higher = more soluble protein in presence of ATP. In a few lines:
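Values are fold changes against the detergent-processed vehicle, based on vsn-normalised intensities. Jurkat crude lysate was treated at eight concentrations from 0.1 to 10 mM (10 min at room temperature, then 3 min at 37 °C), solubilised with 0.8% NP40 and benzonase, ultracentrifuged and analysed by TMT-labelled LC-MS/MS over three independent experiments.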

± gives the standard deviation of the averaged measurements. The entries are a selection whose mix differs from that of the whole data set. Small differences around the control level are noise.

As for UniProt Q8NEB9, the NP40-soluble protein abundance runs as follows: (concentration: 0.1mM) 1.03 ± 0.077; (concentration: 0.5mM) 1.05 ± 0.051.
Turning to UniProt Q8IYH5 and related entries, the NP40-soluble protein abundance by setting is: (concentration: 0.1mM) 0.966 ± 0.14; (concentration: 0.5mM) 1 ± 0.15.
On to UniProt Q8N4V1 and related entries, for which the NP40-soluble protein abundance (concentration: 0.1mM) was 0.889 ± 0.097 and the NP40-soluble protein abundance (concentration: 0.5mM) turned out to be 0.842 ± 0.11.
The like results for UniProt Q8N122 and related entries were, in that order, 1.05 ± 0.049 and 1.01 ± 0.044.
Consider UniProt Q8NFC6, for which the NP40-soluble protein abundance by setting is: (concentration: 0.1mM) 0.987 ± 0.021; (concentration: 0.5mM) 0.995 ± 0.06.
As to CMAS (UniProt Q8NFW8), the NP40-soluble protein abundance by setting is: (concentration: 0.1mM) 1.05 ± 0.084; (concentration: 0.5mM) 1.1 ± 0.04.
As for SCCPDH (UniProt Q8NBX0), the NP40-soluble protein abundance runs as follows: (concentration: 0.1mM) 1.04 ± 0.072; (concentration: 0.5mM) 1.02 ± 0.064.
Take VPS52 (UniProt Q8N1B4): the NP40-soluble protein abundance runs as follows: (concentration: 0.1mM) 1.06 ± 0.066; (concentration: 0.5mM) 1.03 ± 0.054.
D2HGDH (UniProt Q8N465): the NP40-soluble protein abundance reads like this: (concentration: 0.1mM) 1.01 ± 0.054; (concentration: 0.5mM) 0.926 ± 0.024.
Turning to UniProt Q8ND82 and related entries, the NP40-soluble protein abundance (concentration: 0.1mM) was 1.03 ± 0.037 and the NP40-soluble protein abundance (concentration: 0.5mM) came to 1.1 ± 0.036.
DCP1B (UniProt Q8IZD4): the NP40-soluble protein abundance came out at 0.977 ± 0.035 (concentration: 0.1mM) and 0.999 ± 0.02 (concentration: 0.5mM).
With TTL (UniProt Q8NG68), the NP40-soluble protein abundance stood at 1.09 ± 0.05 (concentration: 0.1mM) and 0.995 ± 0.045 (concentration: 0.5mM).
In the case of UniProt Q8IVS2, the NP40-soluble protein abundance by setting is: (concentration: 0.1mM) 0.993 ± 0.048; (concentration: 0.5mM) 0.98 ± 0.039.
The like results for UniProt Q8N9V3 and related entries were, in that order, 1.06 ± 0.031 and 1.04 ± 0.039.
For the target UniProt Q8ND04 and related entries, the NP40-soluble protein abundance (concentration: 0.1mM) was found to be 1.01 ± 0.028 and the NP40-soluble protein abundance (concentration: 0.5mM) was 1.01 ± 0.066.
The like results for UniProt Q8N2F6 and related entries were, in that order, 1.02 ± 0.055 and 1.01 ± 0.041.
On to COMMD1 (UniProt Q8N668), for which the NP40-soluble protein abundance reads like this: (concentration: 0.1mM) 0.913 ± 0.1; (concentration: 0.5mM) 0.901 ± 0.15.
For the target LPCAT1 (UniProt Q8NF37), the NP40-soluble protein abundance stood at 1.07 ± 0.11 (concentration: 0.1mM) and 1.01 ± 0.059 (concentration: 0.5mM).
On to DDHD1 (UniProt Q8NEL9), for which the NP40-soluble protein abundance reads like this: (concentration: 0.1mM) 1.02 ± 0.016; (concentration: 0.5mM) 1.01 ± 0.025.
For PDPR (UniProt Q8NCN5), the NP40-soluble protein abundance is 1.08 ± 0.096 (concentration: 0.1mM) and 1.05 ± 0.046 (concentration: 0.5mM).
As to LMTK2 (UniProt Q8IWU2), the NP40-soluble protein abundance reads like this: (concentration: 0.1mM) 0.983 ± 0.1; (concentration: 0.5mM) 0.943 ± 0.1.
UniProt Q8IZ81 and related entries: the NP40-soluble protein abundance by setting is: (concentration: 0.1mM) 1.04 ± 0.069; (concentration: 0.5mM) 1.04 ± 0.08; (concentration: 1mM) 1.01 ± 0.11; (concentration: 2mM) 0.966 ± 0.089; (concentration: 4mM) 0.958 ± 0.094; (concentration: 6mM) 0.916 ± 0.12. Also, the NP40-soluble protein abundance amounted to 0.967 ± 0.045 (concentration: 8mM) and 0.958 ± 0.057 (concentration: 10mM).
MRPL41 (UniProt Q8IXM3): the NP40-soluble protein abundance is, setting by setting: (concentration: 0.1mM) 0.784 ± 0.3; (concentration: 0.5mM) 0.901 ± 0.29.
For DDX60 (UniProt Q8IY21), the NP40-soluble protein abundance (concentration: 0.1mM) worked out at 0.984 ± 0.038; the NP40-soluble protein abundance (concentration: 0.5mM) is 1.07 ± 0.091; the NP40-soluble protein abundance (concentration: 1mM) came out at 1.2 ± 0.078; the NP40-soluble protein abundance (concentration: 2mM) amounted to 1.27 ± 0.093; the NP40-soluble protein abundance (concentration: 4mM) came to 1.66 ± 0.11; the NP40-soluble protein abundance (concentration: 6mM) amounted to 1.73 ± 0.15. Besides, the NP40-soluble protein abundance is, setting by setting: (concentration: 8mM) 1.9 ± 0.16; (concentration: 10mM) 1.95 ± 0.11.
Consider UniProt Q8N8E3 and related entries, for which the NP40-soluble protein abundance turned out to be 1.05 ± 0.067 (concentration: 0.1mM) and 1.09 ± 0.043 (concentration: 0.5mM).
As for UniProt Q8NCA5 and related entries, the NP40-soluble protein abundance runs as follows: (concentration: 0.1mM) 0.992 ± 0.068; (concentration: 0.5mM) 1.01 ± 0.1; (concentration: 1mM) 1.01 ± 0.056; (concentration: 2mM) 1.14 ± 0.15; (concentration: 4mM) 1.18 ± 0.12; (concentration: 6mM) 1.26 ± 0.14. Also, the NP40-soluble protein abundance reads like this: (concentration: 8mM) 1.41 ± 0.14; (concentration: 10mM) 1.64 ± 0.23.
With FLCN (UniProt Q8NFG4), the NP40-soluble protein abundance reads like this: (concentration: 0.1mM) 0.965 ± 0.074; (concentration: 0.5mM) 0.991 ± 0.021; (concentration: 1mM) 1.02 ± 0.056; (concentration: 2mM) 1 ± 0.037; (concentration: 4mM) 1.05 ± 0.066; (concentration: 6mM) 0.988 ± 0.058. Moreover, the NP40-soluble protein abundance reads like this: (concentration: 8mM) 0.977 ± 0.07; (concentration: 10mM) 0.974 ± 0.033.
As to DCUN1D3 (UniProt Q8IWE4), the NP40-soluble protein abundance came to 1.01 ± 0.14 (concentration: 0.1mM); 0.911 ± 0.069 (concentration: 0.5mM); 0.923 ± 0.038 (concentration: 1mM); 0.949 ± 0.049 (concentration: 2mM); 0.998 ± 0.035 (concentration: 4mM); 0.92 ± 0.034 (concentration: 6mM). The NP40-soluble protein abundance was 0.931 ± 0.039 (concentration: 8mM) and 0.866 ± 0.11 (concentration: 10mM).
Turning to KBTBD2 (UniProt Q8IY47), the NP40-soluble protein abundance runs as follows: (concentration: 0.1mM) 1.07 ± 0.16; (concentration: 0.5mM) 1.13 ± 0.069; (concentration: 1mM) 1.14 ± 0.13; (concentration: 2mM) 1.11 ± 0.027; (concentration: 4mM) 1.15 ± 0.07; (concentration: 6mM) 1.05 ± 0.044. The NP40-soluble protein abundance is, setting by setting: (concentration: 8mM) 1.16 ± 0.13; (concentration: 10mM) 1.08 ± 0.026.
